Source: the supplement of paper PMC12462457
Structures can show the parent of a compound that is named as a salt. ± gives the standard deviation of the averaged measurements. Some of the results follow. Single values are uncertain here, since repeats match poorly.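 Imaging of DAPI-stained nuclei was used to count cells; those without phalloidin-stained cytoplasm were treated as dead and excluded. Every well's count was divided by the median of same-plate vehicle wells, then averaged across two replicate plates.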

Tested on: OVCAR8
Assay: cell count relative to DMSO vehicle (fold change); higher = more surviving senescent cells (less killing)
Details: senescence inducer: cisplatin 10 µM 48 h, then 6 d recovery (CP senescent), exposure time 24 h

| Compound | cell count (compound dose 1 µM) | cell count (compound dose 5 µM) |
| --- | --- | --- |
| CO[C@H]1/C=C\C=C(/C)C(=O)NC2=CC(=O)C(NCCN(C)C)=C(C[C@@H](C)C[C@H](OC)[C@H](O)[C@@H](C)/C=C(\C)[C@@H]1OC(N)=O)C2=O [Alvespimycin (hydrochloride)] | 0.243 ± 0.059 | 0.261 ± 0.0085 |
| CC1=NN(c2ccccc2)C(=O)C1 | 1.18 ± 0.044 | 1.13 ± 0.084 |
| CC(=O)c1ccc2c(c1)c1cc(C(C)=O)ccc1n2CCNC(C)C [CBL0137 hydrochloride] | 0.453 ± 0.2 | 0.342 ± 0.056 |
| O=C(/C=C/c1ccc(O)cc1)CC(=O)/C=C/c1ccc(O)cc1 [Bisdemethoxycurcumin] | 1.21 ± 0.047 | 1.1 ± 0.36 |
| COc1ccc(Cn2ccc3ccc(C(=O)NO)cc32)cc1 | 0.9235 ± 0.0092 | 1.04 ± 0.32 |
| CC#CC(=O)N1CC[C@@H](n2c(=O)n(-c3ccc(Oc4ccccc4)cc3)c3c(N)ncnc32)C1 [Tirabrutinib] | 1.25 ± 0.11 | 1.1 ± 0.16 |
| CC1(C)O[C@H]2CC(=O)OC[C@]23[C@H]2CC[C@@]4(C)[C@H](c5ccoc5)OC(=O)[C@H]5O[C@]54[C@]2(C)C(=O)C[C@@H]13 [Limonin] | 1.25 ± 0.08 | 0.82 ± 0.11 |
| CCOC(=O)c1cnc2ccc(-c3cncc(NS(=O)(=O)c4ccccc4)c3)cn12 | 0.795 ± 0.13 | 0.39 ± 0.0099 |
| COc1cc(C(=O)N2CCC(N3CCN(C)CC3)CC2)ccc1Nc1ncc2c(n1)N(C)c1ccccc1C(=O)N2C | 0.728 ± 0.053 | 0.652 ± 0.03 |
| COc1cc2cc(c1Cl)N(C)C(=O)CC(O)C1(C)OC1C(C)C1CC(O)(NC(=O)O1)C(OC)/C=C/C=C(\C)C2 (stereo not drawn) [Maytansinol] | 1 ± 0.033 | 0.664 ± 0.17 |
| Cc1[nH]c2ccc(F)cc2c1-c1nc2c3cccnc3c3ncccc3c2[nH]1 | 1.12 ± 0.11 | 1.27 ± 0.036 |
| Cc1ccc(-c2cn3c4c(sc3n2)CCCC4)cc1 [Pifithrin-β (hydrobromide)] | 1.14 ± 0.35 | 1.21 ± 0.19 |
| CC(C)=CCC[C@](C)(O)[C@H]1CC[C@]2(C)[C@@H]1[C@H](O)C[C@@H]1[C@@]3(C)CC[C@H](O)C(C)(C)[C@@H]3CC[C@]12C [(20S)-Protopanaxadiol] | 0.789 ± 0.19 | 0.43 ± 0.24 |
| CCCCCCCC(=O)/C=C/c1ccc(O)c(OC)c1 [(E)-[6]-Dehydroparadol] | 1 ± 0.22 | 1.084 ± 0.0057 |
| Cc1cc2nc3c(=O)[nH]c(=O)nc-3n(C)c2cc1C=O | 0.92 ± 0.055 | 0.63 ± 0.75 |
| O=C(O)C(=O)O.[NH-][C@@H]1CCCC[C@H]1[NH-].[Pt+2] | 0.812 ± 0.2 | 0.458 ± 0.09 |
| C=CCSSSCC=C | 1.14 ± 0.065 | 0.964 ± 0.3 |

| Compound | cell count (compound dose 1 µM) | cell count (compound dose 5 µM) |
| --- | --- | --- |
| Cc1cc(C(C)(C)C)c(O)c(C(C)(C)C)c1 | 1.13 ± 0.073 | 1.16 ± 0.035 |
| C1COC(NC(C2CC2)C2CC2)=N1 [Rilmenidine (hemifumarate)] | 0.958 ± 0.14 | 0.823 ± 0.14 |
| C/C(=C\c1csc(C)n1)[C@@H]1C[C@@H]2O[C@]2(C)CCC[C@H](C)[C@H](O)[C@@H](C)C(=O)C(C)(C)[C@@H](O)CC(=O)N1 [Ixabepilone] | 1.05 ± 0.015 | 0.98 ± 0.19 |
| O=C(O)c1cn(C2CC2)c2cc(N3CCNCC3)c(F)cc2c1=O | 0.963 ± 0.098 | 0.537 ± 0.15 |
| CN1CC(=O)N2[C@H](c3ccc4c(c3)OCO4)c3[nH]c4ccccc4c3C[C@@H]2C1=O [Tadalafil] | 0.922 ± 0.15 | 0.797 ± 0.06 |
| CCN(C(=O)c1c(O)c2c(Cl)cccc2n(C)c1=O)c1ccccc1 [Laquinimod] | 1.14 ± 0.17 | 1.13 ± 0.14 |
| CC(NC(=O)c1ccccc1/N=C/c1c(O)ccc2ccccc12)c1ccccc1 (stereo not drawn) [Sirtinol] | 0.892 ± 0.14 | 0.442 ± 0.34 |
| O=C(Nc1nc2ccc(NC(=O)C34CC5CC(CC(C5)C3)C4)cc2s1)c1ccccc1 | 1.23 ± 0.054 | 0.912 ± 0.18 |
| Nc1ccn([C@@H]2C(F)=C(CO)[C@@H](O)[C@H]2O)c(=O)n1 | 1.15 ± 0.1 | 1.24 ± 0.016 |
| CCC[C@H](C)Oc1nc(N)c2[nH]c(=O)n(CCCCCN3CCCCC3)c2n1 | 1.08 ± 0.22 | 1.01 ± 0.14 |
| NC(=O)c1cccc2cn(-c3ccc([C@@H]4CCCNC4)cc3)nc12 [Niraparib] | 1.17 ± 0.05 | 0.808 ± 0.32 |
| NC(=O)c1cccc2cn(-c3ccc([C@@H]4CCCNC4)cc3)nc12 [Niraparib (MK-4827) tosylate] | 1.091 ± 0.0078 | 0.722 ± 0.61 |
| CO[C@@H]1[C@H](N(C)C(=O)c2ccccc2)C[C@H]2O[C@]1(C)n1c3ccccc3c3c4c(c5c6ccccc6n2c5c31)C(=O)NC4 [Midostaurin] | 0.454 ± 0.021 | 0.134 ± 0.069 |
| CC[C@H](C)[C@H](NC(=O)OCc1ccccc1)C(=O)N[C@H](C=O)CC(C)C [Z-Ile-Leu-aldehyde] | 1.16 ± 0.1 | 1.1 ± 0.091 |
| CNC(=O)c1cccc(-c2ccc3c(N4CCOC[C@@H]4C)nc(N4CCOC[C@@H]4C)nc3n2)c1 [Vistusertib] | 0.912 ± 0.058 | 0.83 ± 0.048 |
| CCc1cc(Nc2nccc(-c3c(-c4ccc(OC)c(C(=O)Nc5c(F)cccc5F)c4)nc4ccccn34)n2)c(OC)cc1N1CCC(N2CCN(S(C)(=O)=O)CC2)CC1 | 0.774 ± 0.088 | 0.579 ± 0.047 |
| CC(C)C[C@H](NC(=O)[C@@H](NC(=O)c1cccc(-c2ccccc2)n1)[C@@H](C)O)B(O)O [Delanzomib] | 0.622 ± 0.081 | 0.646 ± 0.03 |
